Data from PubChem BioAssay AID1347426 (Functional Genomics Laboratory (NCATS/FGL), 2020).
The whole screen tested about 31,000 sequences, of which about 1,400 (4.5%) were called active.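 Rule for the calls: active = median seed-adjusted z-score above 1 or below -1; inactive = the rest.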 The list shows a part of the results.

Assay: Novel Modifiers of Survival Motor Neuron (SMN) Protein: Gene Identification via Genome-wide siRNA Screen;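 note: luminescence tracks full-length SMN protein made from the SMN2 reporter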
Settings: HEK293T SMN2-luciferase reporter, siRNA knockdown, 72 h; actives lie on both sides
How it was run: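 siRNA screen, 10418 genes ×3 siRNAs; 1 pmol/well, lipid reverse transfection into HEK293T SMN2-luc reporter line. 72 h, 37 °C, 5% CO2; ONE-Glo readout. Data: neg-ctrl normalized, log10, MAD; hit = MAD >1.0 or < -1.0.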

Row | Sequence | median seed-adjusted z-score
1 | CCUUAAGGCCGGAUGUUUATT against ATP4B | inactive: -0.609
2 | GGAUCCUCUUGCUCAUAGATT against TIGD6 | inactive: -0.443
3 | UGGUCAUCGCUAUCUCCUATT against NPBWR1 | inactive: 0.344
4 | AGAUGAUUAUGAGAACCAUTT against CAMKV | inactive: -0.193
5 | CACUCGGGUUUUGAAUAUATT against CTH | inactive: 0.629
6 | GGACAGUAGGGAUACUGGATT against ENTPD7 | inactive: 0.368
7 | CAUCCUAGCCUGUGCGAAATT against RFC5 | inactive: -0.644
8 | CCUCGACUAUUUUAAGACATT against UBA1 | active: 1.34
9 | CGUAGAUUCCCAUCAUACATT against BSG | inactive: 0.211
10 | GGGCAUGAUCUGCUACAAUTT against GSTM1 | inactive: -0.55
11 | GAUGAGGAUUUAUGACCAATT against FOXL1 | inactive: -0.448
12 | GCACAUGAAGAAUGACGAUTT against CHRNB4 | inactive: -0.317
13 | CAACCCUGAUAAAAGAGAUTT against VEGFB | inactive: 0
14 | CACUGGAUGCGAUAAGACATT against AEBP2 | inactive: -0.212
15 | ACAGUAACGGGAUCGACUATT against RAB40C | inactive: -0.161
16 | GAGUACUCGGUGUUCCUGATT against S100A5 | inactive: 0.418
17 | AAAAUGCAGUCGACGAAAATT against GTPBP1 | inactive: -0.18
18 | GAUGUAUUCUCAAUCGUAUTT against USP9X | inactive: -0.443
19 | GGAGGCUAAUGGUUGCUUUTT against ARPC1B | inactive: 0
20 | CAAACAGUCAAAAACCCAATT against ADH6 | inactive: -0.132
21 | GGGAAGUUGCAGUCAAGAATT against ZFP37 | inactive: -0.305
22 | CUGGUUCGCCGAGAAAUUUTT against TRIAP1 | inactive: 0.253

Random excerpt: 2 entries already listed
Row | Sequence | median seed-adjusted z-score
16 | GAGUACUCGGUGUUCCUGATT against S100A5 | inactive: 0.418
8 | CCUCGACUAUUUUAAGACATT against UBA1 | active: 1.34

Continued.

Row | Sequence | median seed-adjusted z-score
23 | GGAUGAAACUGACCGAUUUTT against PRKCB1 | inactive: 0.0463
24 | GUGGAGGAAUGGUUCAAUATT against KRT32 | inactive: -0.000598
25 | ACCAUACCCUGGACCAUGATT against HK3 | inactive: 0.0759
26 | GCCCAACUGUACUGUCAUATT against SMYD1 | inactive: -0.0827
27 | AGAGUGUGCCGGUUACCCATT against CD8B | inactive: 0.174
28 | GGUCAUAUUCCACAAGGAATT against SLC26A7 | inactive: 0.561
29 | GGAUCAUUUUGGGAGCCUUTT against HTR1B | inactive: -0.221
30 | CCGCAUACAUUUUCGAAGATT against PFKP | inactive: -0.352
31 | CUGCCGCAAUGACAACAAATT against TRIM42 | inactive: -0.153
32 | CUAGGAGUCAAAGAAAAUATT against RNPS1 | inactive: 0
33 | GGCCUUGGCAAUGACGAUCTT against FXYD7 | inactive: -0.0312
34 | GCUGGUAUCUAUUUAGGUATT against SLCO6A1 | inactive: 0.0239
35 | GACUGAGGCUCAGUACGUATT against PTPRH | inactive: 0.175
36 | CGCAAAUCAUCAACUCCAATT against ACTN4 | inactive: 0
37 | GGACUACUUCUGAACUCUATT against TFDP2 | inactive: 0.85
38 | GGAUAAAGUGGGAUGAACATT against PRPF3 | inactive: -0.289
39 | AGCCAAACAUCAUCAUGGATT against PMS2L3 | inactive: 0.175
40 | GCUACUUCAUCGUUAGAUUTT against ABCB7 | inactive: -0.0991
41 | CGCCUUGAAUGGGAGCAAATT against C2 | inactive: -0.0549
42 | GUUUAGAUCUCAAACAAGATT against SPINLW1 | inactive: 0.00582
43 | GCGCAGUAUAUCUACAAGATT against MBOAT7 | inactive: 0.314
44 | GCAAAUGUCACGUUACUCATT against TFAP2B | inactive: 0

4 entries from above, tab-delimited.
Row	Sequence	median seed-adjusted z-score
32	CUAGGAGUCAAAGAAAAUATT against RNPS1	inactive: 0
33	GGCCUUGGCAAUGACGAUCTT against FXYD7	inactive: -0.0312
34	GCUGGUAUCUAUUUAGGUATT against SLCO6A1	inactive: 0.0239
35	GACUGAGGCUCAGUACGUATT against PTPRH	inactive: 0.175

Quoted from the listing:
median seed-adjusted z-score, CGUAGAUUCCCAUCAUACATT against BSG reads inactive: 0.211
median seed-adjusted z-score, GGACUACUUCUGAACUCUATT against TFDP2 reads inactive: 0.85

Remaining list, next part:

Row | Sequence | median seed-adjusted z-score
45 | GAGUAGUUUAGAUAAGUUATT against SPAG9 | inactive: 0.0795
46 | CGCAUGUUCCGGGACAAAATT against BCR | inactive: 0.143
47 | GUAUCUCACUGGAGAAGGATT against LAMC3 | inactive: 0.394
48 | GGAGGAACAGUUUCGAUCATT against REV1 | inactive: -0.294
49 | GCUAUACGGUUGACAACGATT against ISLR | inactive: 0.00807
50 | GACUGUGAUCGAGCCCUUATT against BIN3 | inactive: 0.16
51 | CGUUCUCUGUGGGUUCAUUTT against PAOX | inactive: 0
52 | GAUCUACCGAAUACAAGAATT against GPR171 | inactive: -0.449
53 | GCAGAAUAGAGGUCAAUGUTT against KPNA2 | inactive: 0.157
54 | CAACGAUUAGAACAAGGAATT against PTPN21 | inactive: 0
55 | CUAUCAAUCCCAGCACUAATT against CDKL3 | inactive: 0.243
56 | GCUGAGUGUUCGUAACAUUTT against TUBD1 | inactive: -0.00491
57 | GAGAAAACAUCGACCUUCATT against NINJ2 | inactive: 0.133
58 | GCUUUUACUCAAAACCAGATT against HESX1 | inactive: 0.3
59 | GGAAGAACGUGAUUCCACATT against EXDL2 | inactive: -0.0717
60 | AGCGAAUCGUCACCACUUATT against DNM2 | inactive: 0.00254
61 | GGCACUAUCUUACUUAGCATT against LMLN | inactive: 0
62 | CGUUCGUGGUCAACAGGAATT against WBSCR17 | inactive: 0
63 | CGAAAGGAGUCUUCACCAATT against PRDX6 | inactive: -0.0302
64 | GCUACAUGAUGGUAUCCUUTT against FZD3 | inactive: -0.0208
65 | CCACCAACGAAGAACUGGATT against STX1B | inactive: 0.229
66 | CAAUGAGACGGAGUUGACATT against KRT7 | inactive: 0

Row | Sequence | median seed-adjusted z-score
67 | CGGACCGGCAGAGAACAAATT against PLA2G10 | active: 1.07
68 | GAACUAAUAGGGACUAGAATT against SLC16A13 | inactive: -0.0537
69 | CAUGUACUGUACUUCCCAATT against HSD11B2 | inactive: 0.215
70 | GGAAGGAAUUCAACCGGAUTT against ZNF366 | inactive: 0.585
71 | AGUAUGUGGUACAACUGAATT against CCRK | inactive: -0.47
72 | GGCAAUACCUUAGUGCUCATT against ALDH1L2 | inactive: 0
73 | GGAGAAGCCUUAGUAGGCATT against SRPR | inactive: 0.242
74 | GGGAUAUGCUUGUUAAUAUTT against BLMH | inactive: -0.156
75 | GAACGUAACAGACAGGUGATT against MEF2C | inactive: -0.632
76 | CGGGAGUGGUUUUCAGAGATT against APOC1 | inactive: 0
77 | GCAGAAGACUAGAGAGACUTT against ABCC5 | inactive: 0.00533
78 | GAAACCAUCCAAUCCAAGATT against TXNDC2 | active: -1.29
79 | GCUGGAGCUAUGUCACUCATT against NEIL1 | inactive: -0.168
80 | AGAAACUGAUGAGAACGGATT against WWOX | inactive: -0.583
81 | GGACCUUAGCAGCAACAAUTT against LRIG3 | inactive: 0.882
82 | CUUCAAUACUUGACUGUAUTT against MGAT2 | inactive: -0.124
83 | CGUGAAGAAGUAUCGAUAUTT against DLG2 | inactive: 0.133
84 | GAAGAACAAAGGUGCUAAATT against PDCD11 | inactive: -0.335
85 | AGACGGAACUCUGUCACAATT against ZFP36 | inactive: 0.106
86 | GAGACUCAAUGAACUAUGUTT against ABCD2 | inactive: -0.102
87 | GCCUGACACUGUAUGGGCUTT against TNXB | inactive: -0.0996
88 | GACUGACGAUGACACGGAATT against KPNA6 | active: -1.54

Row | Sequence | median seed-adjusted z-score
89 | GCAGGUCACGGUUGAUGUATT against FANCA | inactive: 0.418
90 | GGAGGACUUCUGUCAAACATT against UNQ9391 | inactive: -0.312
91 | GGUCUGGACAUCUAUCUCATT against CD2 | inactive: 0.00791
92 | GGACAUUUGAUAUCGAGGATT against B3GNT2 | inactive: -0.0427
93 | CCUGAUGAAAGAUUACUUUTT against ADCY9 | inactive: 0.269
94 | CAUCAAUGGUCAUAAUGCATT against HNRNPA2B1 | active: 1.33
95 | CCCAACUCAUUAUAGCAUUTT against F8 | inactive: -0.0992
96 | CUCUGACAGUGGUACAACATT against PPM1G | inactive: 0.073
97 | GAAUUUCUAGGGCAAAGAATT against RGS13 | inactive: 0.0487
98 | CUCGGGAGAUGGAAAGAAATT against UPB1 | inactive: -0.0341
99 | GAUACUACCCUGAUCAUAUTT against TMTC3 | inactive: 0.266
100 | GAUUAAUGACUAUUUGAGATT against SERPINA11 | inactive: -0.0879
101 | GCAUUGUCGUUUAUCGAGUTT against AFF3 | inactive: -0.00277
102 | GCUUUGAGUUGGACUAUGATT against TRIM10 | inactive: -0.0934
103 | CUCUGACCCUGGAUCUUGATT against SLC29A2 | inactive: -0.0569
104 | CAUCUUAAGUUGCAUCAUATT against KCNJ16 | inactive: -0.705
105 | ACAUGGUGGUUACCAGGAATT against PIP4K2B | inactive: 0.17
106 | GCACCAAUGAGAUUGAUCUTT against CHRNG | inactive: 0.221
107 | GGAUGGACCUCUACUUCUUTT against SLC15A3 | inactive: 0
108 | GGAAGAUCAUAGAAGUUGATT against SLC1A1 | inactive: 0.0967
